This is an account of results in publication PMC7219087.

No constants are given. Whether binding was seen depends on the method and setting. Where a sequence is shown, tags or fusion partners need not be part of it.

In this test the target is T1, BRASSINOSTEROID ENHANCED EXPRESSION1 (BEE1), yeast two-hybrid fusion (Arabidopsis thaliana) (UniProt Q8GZ13).
T1 sequence: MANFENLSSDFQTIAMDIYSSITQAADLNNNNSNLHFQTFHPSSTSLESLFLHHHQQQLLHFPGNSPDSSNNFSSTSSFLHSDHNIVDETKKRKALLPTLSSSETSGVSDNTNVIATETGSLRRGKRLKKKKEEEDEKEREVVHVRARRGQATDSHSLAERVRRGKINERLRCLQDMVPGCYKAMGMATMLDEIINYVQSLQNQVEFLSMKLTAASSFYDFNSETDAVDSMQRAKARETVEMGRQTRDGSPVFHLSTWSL
Kind of test: two-hybrid; GAL4 system (pGADT7 and pGBKT7), yeast strain AH109, cotransformation, 22°C; positive when growth on -W-L-H +15 mM 3-AT selective medium.

Take “… (STK), yeast two-hybrid fusion (from UniProt Q38836 1-230)”: the binding result is recorded as “no binding”.
